For this test, the target named is T1, Apaf-1 fused to an N-terminal fragment of luciferase / Apaf-1 fused to a C-terminal fragment of luciferase, O14727.
T1 chain: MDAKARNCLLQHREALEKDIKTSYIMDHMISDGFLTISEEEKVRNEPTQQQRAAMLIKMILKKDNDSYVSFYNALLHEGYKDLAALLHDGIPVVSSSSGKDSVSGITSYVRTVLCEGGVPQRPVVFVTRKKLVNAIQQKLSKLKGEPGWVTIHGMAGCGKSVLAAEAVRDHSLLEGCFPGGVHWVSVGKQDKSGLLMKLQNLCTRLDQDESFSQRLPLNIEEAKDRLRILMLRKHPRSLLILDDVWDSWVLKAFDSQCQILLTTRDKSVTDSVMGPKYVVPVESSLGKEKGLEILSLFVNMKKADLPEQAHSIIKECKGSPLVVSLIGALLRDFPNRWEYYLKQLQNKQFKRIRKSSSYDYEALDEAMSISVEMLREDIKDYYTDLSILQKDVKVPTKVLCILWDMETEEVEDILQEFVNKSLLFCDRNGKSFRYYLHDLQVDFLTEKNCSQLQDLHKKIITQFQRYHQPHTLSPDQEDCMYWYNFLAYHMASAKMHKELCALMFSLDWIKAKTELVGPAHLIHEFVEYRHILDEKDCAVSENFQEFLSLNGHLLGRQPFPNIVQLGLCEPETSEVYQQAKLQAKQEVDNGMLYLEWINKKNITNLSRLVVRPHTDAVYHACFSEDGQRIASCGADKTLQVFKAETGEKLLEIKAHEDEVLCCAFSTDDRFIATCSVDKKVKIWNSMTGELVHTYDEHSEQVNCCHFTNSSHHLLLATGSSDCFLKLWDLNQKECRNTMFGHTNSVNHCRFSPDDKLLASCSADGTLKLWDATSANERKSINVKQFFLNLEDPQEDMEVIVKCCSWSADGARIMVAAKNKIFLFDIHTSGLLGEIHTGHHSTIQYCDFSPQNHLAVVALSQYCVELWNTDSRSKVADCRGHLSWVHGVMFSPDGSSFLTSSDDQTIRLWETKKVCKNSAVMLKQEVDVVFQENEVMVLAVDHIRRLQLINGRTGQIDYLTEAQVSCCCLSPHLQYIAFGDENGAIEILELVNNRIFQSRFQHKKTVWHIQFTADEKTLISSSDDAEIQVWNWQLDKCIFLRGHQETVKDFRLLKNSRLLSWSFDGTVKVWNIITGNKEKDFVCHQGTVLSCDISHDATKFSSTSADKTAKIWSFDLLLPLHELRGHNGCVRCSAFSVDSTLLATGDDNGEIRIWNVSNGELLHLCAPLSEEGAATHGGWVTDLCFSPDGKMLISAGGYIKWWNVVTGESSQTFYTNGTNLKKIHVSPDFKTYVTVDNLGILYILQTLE
The test is described as follows: split reporter; split luciferase complementation; ice cold extracts from N-luc and C-luc expressing cells (5 µL of each) mixed; cytochrome c 1.6 µM and dATP 1 mM added, then One-Glo luciferase assay system; light read at 25 °C over 15 min. The settings on record: remark: other sources report otherwise.

Results are given in words; binding and its absence hold for the method and conditions named. Binding seen in cells or lysates may run through a third protein. Some entries that bind do so weakly or less than the wild type. Where a sequence is shown, tags or fusion partners need not be part of it.

B1: Apaf-1 fused to an N-terminal fragment of luciferase / Apaf-1 fused to a C-terminal fragment of luciferase, O14727 1-1248 (protein)
chain: T1 chain
As for B1, the binding result is on record as “binds”.

Values taken from article PMC7198528.
